Reference: PubChem BioAssay AID1347131 (National Center for Advancing Translational Sciences (NCATS), 2019)
Screen size: about 410,000 compounds; about 2,000 (0.49%) were called active. This list was built around the results that the source calls inconclusive (neither active nor inactive); the mix of calls is not that of the screen. Calls follow the shape of the full dose curve; tested in HEK293 reporter line. Potencies of inconclusive entries are doubtful fits and often do not repeat.

assay: qHTS Assay for Foot and Mouth Disease Virus Antivirals: Primary Screen against the MLPCN compound library; conditions: FMDV antiviral cell-based qHTS; activity, negative = inhibition: at 57.9 µM (top of the series); also: nearly all actives have a fitted effect of over 55% in size
Potency is read from the fitted curve at half-maximal effect.

| SMILES | Potency | activity, negative = inhibition |
| --- | --- | --- |
| CC(C)Cn1c([N+](=O)[O-])nc2c1c(=O)[nH]c(=O)n2C | inconclusive: 28.2 µM [inhibitor, partial curve, poor fit] |  |
| CC(C)[C@H](NC(N)=O)C(=O)Nc1ccc(F)c(Cl)c1 | inconclusive: 4.47 µM [inhibitor, partial curve] |  |
| CCCCNC(=O)C1(C)CCCCN1Cc1ccc2ccccc2c1 (stereo not given) | inconclusive: 5.62 µM [inhibitor, partial curve] |  |
| CCOC(=O)C1(CC2CCCCO2)CCN(Cc2c(C)cc(C)cc2-n2cccn2)CC1 (stereo not given) | inconclusive: 10 µM [inhibitor, partial curve] |  |
| COc1ccc(C)cc1NC(=O)/C=C/c1ccc(OC)c(S(=O)(=O)N2CCOCC2)c1 |  | inactive: -31.7% |
| N#C/C(=C/c1ccc(N2CCCCCC2)o1)c1ccc(Cl)cc1 | inconclusive: 25.1 µM [inhibitor, partial curve, poor fit] |  |
| CC1=[N+](C)c2ccc3ccccc3c2C1(C)C |  | inactive: -33.1% |
| COc1cccc(CNc2cc(CSc3ccc(Cl)cc3)nc(C)n2)c1 | inconclusive: 12.6 µM [inhibitor, partial curve, poor fit] |  |
| CCOC(=O)c1cnc(-n2nc(C)cc2C)nc1N(CC)CC | inconclusive: 11.2 µM [inhibitor, partial curve] |  |
| CCOC(=O)c1cnc2ccc(OCC)cc2c1NCc1ccccc1OC | inconclusive: 17.8 µM [inhibitor, partial curve, poor fit] |  |
| CCN(c1ccccc1)S(=O)(=O)c1ccc(NC(=O)c2nc(S(C)(=O)=O)ncc2Cl)cc1 | inconclusive: 28.2 µM [inhibitor, partial curve, poor fit] |  |
| O=C(Nc1nc2ccccc2[nH]1)c1ccc(F)cc1 | inconclusive: 20 µM [inhibitor, partial curve, poor fit] |  |
| Cc1cccc2[nH]c3c(N4CC=C(c5ccc(F)cc5)CC4)ncnc3c12 | inconclusive: 39.8 µM [inhibitor, single point] |  |
| CN(C)S(=O)(=O)c1cccc(NC(=O)c2ccc(COc3ccccc3)cc2)c1 | inconclusive: 25.1 µM [inhibitor, partial curve, poor fit] |  |
| CC(=O)c1ccc(N2CCC(c3cc(-c4ccc(Cl)cc4Cl)n[nH]3)CC2)c([N+](=O)[O-])c1 | inconclusive: 20 µM [inhibitor, partial curve, poor fit] |  |
| CN(C)c1ccc(/C=C2\SC(=O)N(CCc3nnc(N)s3)C2=O)cc1 | inconclusive: 11.2 µM [inhibitor, single point] |  |
| COc1cccc(NC(=S)NCc2cccs2)c1 |  | inactive: 133% |
| O=C(C1CCN(c2ncnc3c2nc2n3CCCCC2)CC1)N1CCN(c2ccc(F)cc2)CC1 | inconclusive: 31.6 µM [inhibitor, partial curve, poor fit] |  |
| COc1ccc(-n2cc(C(=O)c3cc(Cl)ccc3O)cc(C#N)c2=O)cc1 | inconclusive: 28.2 µM [inhibitor, partial curve, poor fit] |  |
| COC(=O)C1=Nc2ccccc2/C1=C\c1c(O)n(C)c(=O)n(C)c1=O |  | inconclusive: -40.4% [inhibitor] |

| SMILES | Potency | activity, negative = inhibition |
| --- | --- | --- |
| CCc1ccc(C(=O)Nc2nnn(CC)n2)cc1 | inconclusive: 39.8 µM [inhibitor, single point] |  |
| C[C@H]1CCCCO[C@H](CN(C)Cc2ccccc2)[C@@H](C)CN([C@@H](C)CO)C(=O)c2cc(NC(=O)CCC(F)(F)F)ccc2O1 | inconclusive: 2.24 µM [inhibitor, full curve] |  |
| CNC(=O)c1cc2c(=O)n3cccc(C)c3nc2n(C(C)C)c1=N | inconclusive: 10 µM [inhibitor, partial curve, poor fit] |  |
| Cc1ccc(C(=O)Nc2cnc3ccccc3c2)cc1 | inconclusive: 3.55 µM [inhibitor, full curve, poor fit] |  |
| CCOc1ccc2nc(NC(=O)CSc3nc4c(c(=O)n(C)c(=O)n4C)n3C(C)C)sc2c1 | inconclusive: 22.4 µM [inhibitor, partial curve, poor fit] |  |
| COc1ccc2nc(NC(=O)c3nc(S(=O)(=O)Cc4ccccc4)ncc3Cl)sc2c1 | inconclusive: 25.1 µM [inhibitor, partial curve, poor fit] |  |
| Cc1nc(NCC2CCCO2)c2oc3ccccc3c2n1 (stereo not given) | inconclusive: 22.4 µM [inhibitor, partial curve, poor fit] |  |
| O=C(CC1SC(=Nc2ccccc2)N(CCCO)C1=O)Nc1ccc(Cl)cc1 (stereo not given) | inconclusive: 14.1 µM [inhibitor, partial curve, poor fit] |  |
| CC(Oc1ccc(F)cc1)C(=O)Nc1nc(-c2ccc(F)cc2)ns1 (stereo not given) | inconclusive: 15.8 µM [inhibitor, single point] |  |
| CC(C)c1cccc(-c2ccc3c(c2)S(=O)(=O)c2cccc(C(=O)NCc4ccccc4Cl)c2C3=O)c1 | inconclusive: 35.5 µM [inhibitor, partial curve, poor fit] |  |
| Cc1cccc(C(=O)O/N=C(\N)c2ccccn2)c1 | active: 8.91 µM |  |
| CCN(CC)S(=O)(=O)c1cc(NC(=O)C2CC(=O)N(Cc3ccccc3)C2)ccc1Cl (stereo not given) | inconclusive: 11.2 µM [inhibitor, partial curve, poor fit] |  |
| Cc1ccc(NS(=O)(=O)c2ccc(C(=O)N3CCN(c4ccccn4)CC3)cc2)cc1 | inconclusive: 17.8 µM [inhibitor, partial curve, poor fit] |  |
| CCOC(=O)/C(=C\c1ccc([N+](=O)[O-])cc1)C(=O)c1cc(C(C)=O)c(Nc2ccccc2)s1 | inconclusive: 15.8 µM [inhibitor, partial curve, poor fit] |  |
| CC(C)Oc1ccc(CN2CCC2(C)C(=O)Nc2cccc(Oc3ccccc3)c2)cc1 (stereo not given) |  | inactive: -33.4% |
| CN(C)c1ccc(NC(=O)CN2C(=O)CN=C(c3ccccc3)c3cc(Cl)ccc32)cc1 | inconclusive: 15.8 µM [inhibitor, partial curve, poor fit] |  |
| COc1ccccc1N1CCN(C(=O)c2ccccc2Oc2ccccc2)CC1 |  | inactive: -42.1% |
| COc1ccc(C(O)(CC(C)C)C(CN2CCOCC2)c2ccccc2)cc1 (stereo not given) |  | inactive: -37.2% |
| CCCCCC(=O)N1CC2(CC(c3cccc(NC(=O)COc4ccc(Cl)cc4)c3)=NO2)C[C@@H]1C(N)=O (stereo not given in full) | active: 14.1 µM |  |
| Cc1ccc(NC(=O)CSc2nnc(CNC(=O)c3ccco3)o2)cc1Cl | inconclusive: 7.94 µM [inhibitor, partial curve] |  |

Ordered by formula weight (low to high): part of the list above.

| SMILES | Potency | activity, negative = inhibition |
| --- | --- | --- |
| Cc1cccc(C(=O)O/N=C(\N)c2ccccn2)c1 | active: 8.91 µM |  |
| Cc1ccc(C(=O)Nc2cnc3ccccc3c2)cc1 | inconclusive: 3.55 µM [inhibitor, full curve, poor fit] |  |
| CC(Oc1ccc(F)cc1)C(=O)Nc1nc(-c2ccc(F)cc2)ns1 (stereo not given) | inconclusive: 15.8 µM [inhibitor, single point] |  |

Next part.

| SMILES | Potency | activity, negative = inhibition |
| --- | --- | --- |
| COc1ccc(-c2noc(CCCOc3ccccc3)n2)cc1OC |  | inactive: -34.9% |
| COc1ccccc1-n1c(SCC(=O)NCC2CCCO2)nc2c([nH]c3ccccc32)c1=O (stereo not given) | inconclusive: 0.708 µM [inhibitor, full curve] |  |
| COc1ccc(C2C3=C(CC(C)(C)CC3=O)Oc3ncn(CC(C)C)c(=N)c32)cc1 (stereo not given) | inconclusive: 10 µM [inhibitor, partial curve, poor fit] |  |
| Cc1nn(C(=O)c2ccccc2)c(C)c1Sc1ccc(Cl)cc1 | inconclusive: 28.2 µM [inhibitor, partial curve, poor fit] |  |
| COc1cc2c(C#N)c(N3CCN(c4ccccc4OC)CC3)nc(N)c2c(N)n1 | inconclusive: 39.8 µM [inhibitor, partial curve, poor fit] |  |
| Cn1nc(C(F)(F)F)c2cc(NC(=O)OCc3ccc(C(C)(C)C)cc3)sc21 | inconclusive: 22.4 µM [inhibitor, partial curve, poor fit] |  |
| CN(c1ccc(-c2csc(NC(=O)CCCc3nc4ccccc4c(=O)[nH]3)n2)cc1)S(C)(=O)=O | inconclusive: 35.5 µM [inhibitor, partial curve, poor fit] |  |
| CCOc1ccccc1C(=O)N(CN1CCCC1=O)c1ccc(C)c(Cl)c1 | inconclusive: 14.1 µM [inhibitor, partial curve] |  |
| Nc1nc(CSc2nnnn2-c2ccccc2)nc(N2CCCc3ccccc32)n1 | inconclusive: 28.2 µM [inhibitor, single point] |  |
| Cc1cc(C(=O)CC#N)c(C)n1CC(F)(F)F | inconclusive: 6.31 µM [inhibitor, partial curve, poor fit] |  |
| CCOc1ccc(CN(C)C(C)C(=O)Nc2ccc([N+](=O)[O-])cc2Cl)cc1OC (stereo not given) | inconclusive: 22.4 µM [inhibitor, partial curve, poor fit] |  |
| COc1ccc(CN2[C@@H](CC(C)=O)c3ccc(/C=C/C(C)=O)cc3S2(=O)=O)cc1 | inconclusive: 31.6 µM [inhibitor, single point] |  |
| CCCCC(=O)N1CCN(c2nc3c(C)c(C)ccc3s2)CC1 |  | inactive: -31.7% |
| CCc1nc(Nc2cccc(OC)c2)c2oc3ccccc3c2n1 | inconclusive: 39.8 µM [inhibitor, partial curve, poor fit] |  |
| O=C(O)c1cc(/C=C/c2ccc(N3CCOCC3)cc2)nc2ccccc12 | inconclusive: 10 µM [inhibitor, partial curve, poor fit] |  |
| CCCn1c2ccccc2c2nnc(SCCN3CCOCC3)nc21 | inconclusive: 15.8 µM [inhibitor, partial curve] |  |
| CCOC(=O)C(CCOc1cccc(CC)c1)C(=O)OCC | inconclusive: 12.6 µM [inhibitor, partial curve] |  |
| Cc1cc(C)c2nc(C(F)(F)F)nc(N3CCN(C(=O)c4ccco4)CC3)c2c1 |  | inactive: -37.6% |
| CC1=C/C(=N\OS(=O)(=O)c2ccccc2)C=CC1=O | inconclusive: 15.8 µM [inhibitor, partial curve, poor fit] |  |
| COc1ccc(C(=O)Nc2ccc3nc(N4CCCCC4)cc(C)c3c2)cc1OC | inconclusive: 35.5 µM [inhibitor, partial curve, poor fit] |  |
